The target in this experiment is T1, Hyperpolarization-activated, cyclic nucleotide-gated cation channel 4 (native rat HCN4 of NRVMs) (rat (endogenous in NRVMs)) (UniProt Q9JKA7).
T1 sequence: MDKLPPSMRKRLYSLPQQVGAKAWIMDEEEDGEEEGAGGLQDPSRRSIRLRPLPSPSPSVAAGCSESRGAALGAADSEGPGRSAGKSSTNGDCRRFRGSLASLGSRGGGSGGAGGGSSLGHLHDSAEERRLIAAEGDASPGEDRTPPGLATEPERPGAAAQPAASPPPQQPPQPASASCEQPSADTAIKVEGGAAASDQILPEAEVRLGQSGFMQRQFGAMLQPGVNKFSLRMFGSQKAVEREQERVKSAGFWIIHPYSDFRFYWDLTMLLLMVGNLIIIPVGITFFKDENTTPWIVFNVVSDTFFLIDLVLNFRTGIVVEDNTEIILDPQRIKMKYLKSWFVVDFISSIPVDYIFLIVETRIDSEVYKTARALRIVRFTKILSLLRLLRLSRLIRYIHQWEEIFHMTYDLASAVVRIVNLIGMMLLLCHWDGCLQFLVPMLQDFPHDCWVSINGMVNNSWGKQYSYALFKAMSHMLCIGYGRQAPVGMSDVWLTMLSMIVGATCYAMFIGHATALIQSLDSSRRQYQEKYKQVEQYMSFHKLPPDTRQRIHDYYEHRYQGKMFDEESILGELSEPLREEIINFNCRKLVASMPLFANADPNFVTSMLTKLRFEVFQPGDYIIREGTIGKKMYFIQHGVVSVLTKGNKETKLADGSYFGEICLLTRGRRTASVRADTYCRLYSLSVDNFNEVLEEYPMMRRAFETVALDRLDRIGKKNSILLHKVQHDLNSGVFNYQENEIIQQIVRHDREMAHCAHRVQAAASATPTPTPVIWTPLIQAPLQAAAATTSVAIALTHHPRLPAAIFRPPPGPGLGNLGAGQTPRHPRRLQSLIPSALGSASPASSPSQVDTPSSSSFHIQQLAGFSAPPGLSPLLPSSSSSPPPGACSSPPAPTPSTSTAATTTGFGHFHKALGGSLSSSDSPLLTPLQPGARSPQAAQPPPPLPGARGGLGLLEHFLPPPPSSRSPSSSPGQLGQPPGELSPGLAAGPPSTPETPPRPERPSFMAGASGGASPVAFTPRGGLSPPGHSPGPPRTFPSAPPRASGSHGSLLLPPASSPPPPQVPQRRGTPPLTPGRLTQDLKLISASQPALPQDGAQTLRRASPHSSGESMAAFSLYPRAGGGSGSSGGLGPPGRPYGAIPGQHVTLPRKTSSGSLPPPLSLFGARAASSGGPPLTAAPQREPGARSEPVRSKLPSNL
Nature of the experiment: co-IP; NRVMs; co-IP for PP2A and SGO1 and for PP2A and HCN4 (Supplementary Fig. 2); which antibody precipitated is not given.

By UniProt entry, the sequences of proteins in these tests, tags left out. Where a name states a change or a piece, a line headed by the entry shows the natural chain unless it says otherwise.
UniProt P63331: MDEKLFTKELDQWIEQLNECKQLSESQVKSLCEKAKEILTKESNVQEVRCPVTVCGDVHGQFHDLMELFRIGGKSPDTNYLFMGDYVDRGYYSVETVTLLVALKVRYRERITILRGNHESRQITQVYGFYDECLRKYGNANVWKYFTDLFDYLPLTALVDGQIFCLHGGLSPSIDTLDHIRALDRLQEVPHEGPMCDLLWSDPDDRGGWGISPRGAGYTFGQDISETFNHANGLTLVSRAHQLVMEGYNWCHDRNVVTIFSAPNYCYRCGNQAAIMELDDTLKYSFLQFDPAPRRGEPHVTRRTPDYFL

No constants are given. Whether binding was seen depends on the method and setting. In cells and extracts the contact can be indirect.

As for “protein-phosphatase 2 A (PP2A), detected by its C subunit (from UniProt P63331) (enzyme)”, the binding result was “no binding”.

Source of the values: publication PMC8100125.
